Results as given in article PMC4357719, “Roles of Rad51 paralogs for promoting homologous recombination in Leishmania infantum”.

Protein sequences, listed by entry. Tags and fused reporters are not part of them. Lines headed by an entry give the natural chain unless they say otherwise; changes in a name come on top.
UniProt A4I499: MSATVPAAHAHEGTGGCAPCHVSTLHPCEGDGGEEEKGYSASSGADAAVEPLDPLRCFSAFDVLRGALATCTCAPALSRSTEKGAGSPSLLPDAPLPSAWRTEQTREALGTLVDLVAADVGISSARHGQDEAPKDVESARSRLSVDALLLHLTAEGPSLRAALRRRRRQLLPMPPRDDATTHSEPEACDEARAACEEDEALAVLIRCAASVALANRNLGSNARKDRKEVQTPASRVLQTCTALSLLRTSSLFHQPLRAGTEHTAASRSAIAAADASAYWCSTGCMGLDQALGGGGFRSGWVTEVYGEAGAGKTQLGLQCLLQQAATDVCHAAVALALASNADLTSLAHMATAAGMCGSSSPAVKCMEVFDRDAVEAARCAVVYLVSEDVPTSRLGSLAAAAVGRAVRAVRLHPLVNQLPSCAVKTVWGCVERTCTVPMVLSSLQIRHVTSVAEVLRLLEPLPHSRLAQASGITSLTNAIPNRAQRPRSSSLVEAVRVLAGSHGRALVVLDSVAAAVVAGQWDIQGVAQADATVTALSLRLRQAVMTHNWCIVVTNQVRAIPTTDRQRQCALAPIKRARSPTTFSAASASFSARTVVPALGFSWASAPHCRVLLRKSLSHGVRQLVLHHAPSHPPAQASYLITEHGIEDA
UniProt E9AHR7: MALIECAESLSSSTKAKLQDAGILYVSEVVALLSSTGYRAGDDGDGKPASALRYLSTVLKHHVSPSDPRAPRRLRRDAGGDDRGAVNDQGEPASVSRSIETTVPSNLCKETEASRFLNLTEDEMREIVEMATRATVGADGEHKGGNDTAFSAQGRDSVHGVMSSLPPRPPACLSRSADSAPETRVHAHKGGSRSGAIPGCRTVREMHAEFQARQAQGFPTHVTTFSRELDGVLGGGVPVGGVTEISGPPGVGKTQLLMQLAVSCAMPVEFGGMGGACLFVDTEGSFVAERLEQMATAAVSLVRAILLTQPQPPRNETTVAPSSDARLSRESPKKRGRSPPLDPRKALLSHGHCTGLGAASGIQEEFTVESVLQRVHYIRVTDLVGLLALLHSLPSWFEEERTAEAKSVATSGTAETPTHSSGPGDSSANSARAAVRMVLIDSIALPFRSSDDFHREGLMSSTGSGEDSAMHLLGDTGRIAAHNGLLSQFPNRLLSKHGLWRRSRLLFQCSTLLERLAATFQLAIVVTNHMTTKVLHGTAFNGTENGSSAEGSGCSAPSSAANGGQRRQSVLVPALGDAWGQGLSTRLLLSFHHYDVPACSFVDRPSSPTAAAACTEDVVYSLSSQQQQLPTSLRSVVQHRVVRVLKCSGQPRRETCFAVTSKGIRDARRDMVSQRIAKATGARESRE
UniProt A4HUT5: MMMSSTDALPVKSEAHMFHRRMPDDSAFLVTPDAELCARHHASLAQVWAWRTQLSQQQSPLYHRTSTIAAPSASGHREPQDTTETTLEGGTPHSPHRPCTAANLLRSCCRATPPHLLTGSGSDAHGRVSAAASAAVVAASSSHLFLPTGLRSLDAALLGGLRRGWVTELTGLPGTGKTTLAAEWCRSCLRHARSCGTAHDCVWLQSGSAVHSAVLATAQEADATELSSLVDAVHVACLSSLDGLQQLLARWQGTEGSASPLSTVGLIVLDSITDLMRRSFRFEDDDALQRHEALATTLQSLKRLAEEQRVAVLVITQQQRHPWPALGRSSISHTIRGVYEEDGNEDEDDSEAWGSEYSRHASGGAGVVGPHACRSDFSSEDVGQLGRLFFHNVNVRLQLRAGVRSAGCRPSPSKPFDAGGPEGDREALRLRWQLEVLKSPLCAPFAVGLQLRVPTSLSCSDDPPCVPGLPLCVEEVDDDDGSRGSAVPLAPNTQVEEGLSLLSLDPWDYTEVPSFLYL

How the values were obtained:
[1] = biological target: T1, LiRad51-GST (Leishmania infantum) (UniProt A4I3C9); assay: pull-down; LiRad51-GST co-infected for 48 h with LiRad51-3-Myc, LiRad51-4-V5 or LiRad51-6-HA in Sf9 cells; lysis in PBS buffer (300 mM NaCl, 1 mM EDTA, 1 mM DTT, 0.2% Triton); glutathione beads 1 h at 4°C; washes with 500 mM NaCl
T1 sequence: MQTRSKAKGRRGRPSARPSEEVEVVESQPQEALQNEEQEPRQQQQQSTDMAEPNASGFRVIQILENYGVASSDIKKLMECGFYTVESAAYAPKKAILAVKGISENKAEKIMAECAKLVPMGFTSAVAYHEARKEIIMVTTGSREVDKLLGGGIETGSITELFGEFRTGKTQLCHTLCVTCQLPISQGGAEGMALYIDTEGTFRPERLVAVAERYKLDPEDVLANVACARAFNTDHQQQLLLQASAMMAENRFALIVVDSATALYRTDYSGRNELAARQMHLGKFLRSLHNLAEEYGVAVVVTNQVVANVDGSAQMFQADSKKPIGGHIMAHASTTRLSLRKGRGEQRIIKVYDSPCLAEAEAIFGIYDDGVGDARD

[2] = biological target: LiRad51-6-HA (Leishmania infantum) (UniProt A4I499); assay: co-IP; anti-HA antibody on Sf9 cell extract containing LiRad51-3-Myc, LiRad51-6-HA and LiRad51-4-V5
[3] = biological target: LiRad51-3-GST (Leishmania infantum) (UniProt E9AHR7); assay: pull-down; GST pull-down from Sf9 cells co-expressing LiRad51-3-GST, LiRad51-4-V5 and LiRad51-6-HA; the GST then cleaved

| binding [1] | binding [2] | binding [3] | Substance |
| --- | --- | --- | --- |
| binds | binds |  | LiRad51-3-Myc (from UniProt E9AHR7) |
| binds |  | binds | LiRad51-6-HA (from UniProt A4I499) |
| binds | binds | binds | LiRad51-4-V5 (from UniProt A4HUT5) |

Results are given in words; binding and its absence hold for the method and conditions named. In cells and extracts the contact can be indirect. A result given as binding can be weak or reduced; the word gives no strength. For some of these results: Tags and fused reporters may be left off the sequences shown.
